Measured values from article PMC10897488.
No constants are given. Whether binding was seen depends on the method and setting. Binding seen in cells or lysates may run through a third protein. Here binding means that the protein was enriched with, or labelled near, the bait; the list need not be complete.

Protein sequences, listed by entry. Tags and fused reporters are not part of them.
UniProt O43791: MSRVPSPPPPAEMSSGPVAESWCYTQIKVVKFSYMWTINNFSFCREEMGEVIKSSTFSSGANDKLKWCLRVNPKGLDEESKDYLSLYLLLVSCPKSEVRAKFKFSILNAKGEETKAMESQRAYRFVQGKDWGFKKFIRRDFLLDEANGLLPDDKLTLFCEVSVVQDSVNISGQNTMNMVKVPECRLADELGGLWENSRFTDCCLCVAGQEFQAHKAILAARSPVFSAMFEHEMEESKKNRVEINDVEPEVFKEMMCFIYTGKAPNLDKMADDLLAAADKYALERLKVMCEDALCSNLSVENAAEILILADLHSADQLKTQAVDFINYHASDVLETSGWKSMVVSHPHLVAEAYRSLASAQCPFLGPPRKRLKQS
UniProt Q7Z5L9: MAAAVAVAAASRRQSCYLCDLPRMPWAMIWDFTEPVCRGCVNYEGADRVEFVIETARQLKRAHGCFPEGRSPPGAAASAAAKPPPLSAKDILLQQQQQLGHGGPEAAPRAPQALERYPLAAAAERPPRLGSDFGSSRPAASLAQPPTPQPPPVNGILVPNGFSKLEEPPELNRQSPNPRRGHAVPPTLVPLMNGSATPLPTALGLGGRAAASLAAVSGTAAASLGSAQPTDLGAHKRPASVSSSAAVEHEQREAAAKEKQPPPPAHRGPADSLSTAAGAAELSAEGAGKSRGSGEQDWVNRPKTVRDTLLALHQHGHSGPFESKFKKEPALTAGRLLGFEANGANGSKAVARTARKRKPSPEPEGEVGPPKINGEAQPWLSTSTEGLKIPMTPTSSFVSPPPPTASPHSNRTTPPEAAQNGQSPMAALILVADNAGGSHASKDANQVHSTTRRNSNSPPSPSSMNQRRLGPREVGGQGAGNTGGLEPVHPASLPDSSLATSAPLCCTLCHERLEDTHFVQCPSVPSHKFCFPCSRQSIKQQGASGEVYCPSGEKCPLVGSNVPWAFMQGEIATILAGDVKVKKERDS

Target: SPOP (bait of the immunoprecipitation with mass spectrometry) (UniProt O43791)
Assay: affinity purification with mass spectrometry; immunoprecipitation with SPOP as bait, then mass spectrometry; cells and construct not told

binding: binds
Substance: IRF2BP2 (candidate found by mass spectrometry) (from UniProt Q7Z5L9 1-587)
